Reference: PubChem BioAssay AID1508600 (Functional Genomics Laboratory (NCATS/FGL), 2020)
Among all 53,000 sequences or so, about 3,700 (7%) were called active.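 Rule for the calls: active = gene knockdowns whose robust z-score for IL-1 alpha signal is at least 2 or at most -2, so actives lie on both sides; inactive = the rest.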 Some of the results follow.

experiment: Components of the Cytosolic LPS Sensing Pathway: Gene Identification via Genome-wide siRNA Screen; details: RAW264.7 macrophages, IL-1a HTRF, actives lie on both sides, screened at 100 nM (by protocol), cells primed 5 h with Pam3CSK4 first;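 note: robust z of the log signal after scaling to non-targeting control siRNA wells of the plate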
Outline: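 IL-1a HTRF of supernatants after 24 hour LipidA transfection of Pam3CSK4-primed (5 hours) RAW264.7 cells, 48h post-siRNA transfection (100 nM). Scores: percent of plate negative-control median, then log-based robust z-score.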

Sequence | z-score
GCACAACGACCUUUCCAGGTT against Chst12 | inactive: -0.561
GCAGUCAUGCCCGAUCUUGTT against Sowaha | inactive: -0.838
CCCUCAAGUACGAAAUCAATT against Jagn1 | inactive: 0.611
GCACUAUGGGUGUCAUGGUTT against Mon1a | active: -3.1
CGCUGUGCUGAGCUUACUUTT against D17H6S53E | active: -2.36
GGAGUUUAAGAAGACGCACTT against Slc26a3 | inactive: 1.62
GGAUCGAACUGCCAUUGCUTT against A930104D05Rik | inactive: -0.201
GGAGAGUGACUUGCAUUAUTT against 2310030G06Rik | inactive: -0.415
GGGUUCCAGUUUGUUUCCUTT against Cnbp | inactive: -0.901
GGCAUCGUCACCAAACUGUTT against Fgf11 | active: -2.51
GGACCUCUUCAAAACCACCTT against Ammecr1l | inactive: -1.35
CCCAGUUGAACAGAUUCCUTT against Olfr357 | inactive: -1.05
AAUCCUGAUGCUACGCAUGTT against Phkg2 | inactive: -0.461
GGGCCUUCUGAUUUAAAAGTT against Slc43a3 | inactive: -1.01
GGAGCUAAUCGCACUUAAATT against Tnnt3 | inactive: 0.135
GGAAUCCAGCUUCGAUGUCTT against Ciapin1 | inactive: -0.15
GGACAGCAUUAACAUUGUATT against Fbxo22 | inactive: -0.708
AAGGGAGUCCAGCAUUUCATT against Pitpnm3 | inactive: 0.0635
CCCAUCACUUGAUUGCUUUTT against Kbtbd3 | inactive: 1.28
GGGCAAUGUGCUACACCAUTT against Olfr640 | inactive: -0.428
CCCAAGCCUACCUUACGAGTT against Hipk2 | inactive: -1.67
GCCCAACUUUAAUCUUAUATT against D630039A03Rik | inactive: 1.81
GGAAGCCACUUCAGAAGCUTT against Olfr412 | inactive: -0.216
CCUGACCAAGGGACUCUCUTT against Plk5 | inactive: 0.195
GCUCAGCUUAGCUGCUUUUTT against Olfr493 | inactive: 0.552
GGUGGCUUUGCUGAAGUACTT against Acad12 | inactive: 0.285
GGUGGAUGAGUUGUUCCUUTT against Adck5 | inactive: 0.637
GGAUGGAACAUAUGAUUAGTT against Vmn1r234 | inactive: 0.653
GGAUUUAUCCUGGUGACUUTT against Cox20 | active: 2.49

Random excerpt: two entries already listed.
Sequence | z-score
GGCAUCGUCACCAAACUGUTT against Fgf11 | active: -2.51
GGAGUUUAAGAAGACGCACTT against Slc26a3 | inactive: 1.62
